PubChem BioAssay AID504744 | Drosophila RNAi Screening Center – 2011
The screen tested about 23,000 reagents; this is an unselected part of those with a known target gene and a result. Over the whole deposit, 98 (0.43%) got an active call. 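Only hit calls are given; the phospho-dAkt signals, z-scores and hit direction were not deposited.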 The numbers tell different reagents against one gene apart. Names joined by + are all predicted targets of the reagent.

- Purpose: 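Uncover factors, including feedback loops, that control dAkt activation in fly cells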 (primary screen)
- Cell system: Drosophila Kc167 cells
- Reagents: long dsRNA against Drosophila genes, 250 ng dsRNA per well of a 384-well plate
- Duration: 3 days of knock-down, then overnight serum-free starvation before stimulation
- Treatment: bovine insulin at 387 nM for 10 minutes after 12 h without serum
- Measured: 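In-cell antibody fluorescence for phospho-dAkt in each well over DNA-dye signal, with log2 residuals expressed as z-scores adjusted for cell count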
- Rule for the call: 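Hit in the insulin screen when the two-replicate mean z-score is more extreme than plus or minus 2.5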

| predicted target | reagent no. | activity call |
| --- | --- | --- |
| CG4988 | 1 | inactive |
| Twdlalpha (Tweedlealpha) | 1 | inactive |
| Pxn (Peroxidasin) | 1 | inactive |
| CG44325 | 1 | inactive |
| Buffy | 1 | inactive |
| Nup93-2 (Nucleoporin 93kD-2) | 1 | inactive |
| mrva (minerva) | 1 | inactive |
| mrva (minerva) | 2 | inactive |
| CG9986 | 1 | inactive |
| CG7457 | 1 | inactive |
| CG6330 | 1 | inactive |
| ALiX (ALG-2 interacting protein X) | 1 | inactive |
| CG12857 | 1 | inactive |
| CG4707 | 1 | inactive |
| CG3473 | 1 | inactive |
| P5CS (Delta[1]-pyrroline-5-carboxylate synthase) | 1 | inactive |
| P5CS (Delta[1]-pyrroline-5-carboxylate synthase) | 2 | inactive |
| Cyp303a1 (Cytochrome P450 303a1) | 1 | inactive |
| CG12133 | 1 | inactive |
| osi (orsai) | 1 | inactive |
| elgi (early girl) | 1 | inactive |
| CG10283 | 1 | inactive |
| CG1677 | 1 | inactive |
| DIP-kappa (Dpr-interacting protein kappa) | 1 | inactive |
| DIP-kappa (Dpr-interacting protein kappa) | 2 | inactive |
| Atg1 (Autophagy-related 1) | 1 | inactive |
| Atg1 (Autophagy-related 1) | 2 | inactive |
| zf30C (zinc finger protein 30C) | 1 | inactive |
| CG32091 | 1 | inactive |
| CG32091 | 2 | inactive |
| IM33 (Immune induced molecule 33) | 1 | inactive |
| CHMP2B (Charged multivesicular body protein 2b) | 1 | inactive |
| CG4364 | 1 | inactive |
| CG14400 | 1 | inactive |
| px (plexus) | 1 | inactive |
| CG13245 | 1 | inactive |
| CG5386 | 1 | inactive |
| CG7997 | 1 | inactive |
| CG6424 | 1 | inactive |
| CG9586 | 1 | inactive |
| RpL41 (Ribosomal protein L41) | 1 | inactive |
| kud (kuduk) | 1 | inactive |
| cv (crossveinless) | 1 | inactive |
| rpr (reaper) | 1 | inactive |
| regucalcin | 1 | inactive |
| regucalcin | 2 | inactive |
| Bace (beta-site APP-cleaving enzyme) | 1 | inactive |
| Chpf (Chondroitin polymerizing factor) | 1 | inactive |
| Chpf (Chondroitin polymerizing factor) | 2 | inactive |
| cass (cassowary) | 1 | inactive |
| so (sine oculis) | 1 | inactive |
| CG15155 | 1 | inactive |
| HisRS (Histidyl-tRNA synthetase) | 1 | inactive |
| CG32069 + Blos2 | 1 | inactive |
| Alg2 (ALG2, alpha-1,3/1,6-mannosyltransferase) | 1 | inactive |
| FBXO11 (F-box protein 11) | 1 | inactive |
| Gnptab | 1 | inactive |
| CG11029 | 1 | inactive |
| CG16779 | 1 | inactive |
| dec (defective chorion) | 1 | inactive |
| dec (defective chorion) | 2 | inactive |
| Ir94g (Ionotropic receptor 94g) | 1 | inactive |
| OXA1L (OXA1L mitochondrial inner membrane protein) | 1 | inactive |
| CG15365 | 1 | inactive |
| CG18545 | 1 | inactive |
| Mcm5 (Minichromosome maintenance 5) | 1 | inactive |
| CG15293 | 1 | inactive |
| beta4GalNAcTA (beta1,4-N-acetylgalactosaminyltransferase A) | 1 | inactive |
| Grip128 | 1 | inactive |
| Tim17b1 | 1 | inactive |
| CG33308 | 1 | inactive |
| CG9215 | 1 | inactive |
| CG1172 | 1 | inactive |
| CG1172 | 2 | inactive |
| CG11227 | 1 | inactive |
| Rilpl (Rab interacting lysosomal protein like) | 1 | inactive |
| mRpL55 (mitochondrial ribosomal protein L55) | 1 | inactive |
| mora (morgana) | 1 | inactive |
| stau (staufen) | 1 | inactive |
| CG14207 | 1 | inactive |
| CG14207 | 2 | inactive |
| Sgp (Sgroppino) | 1 | inactive |
| Acox3 (Acyl-CoA oxidase 3) | 1 | inactive |
| CG33095 | 1 | inactive |
| CG30087 | 1 | inactive |
| Ciao1 | 1 | inactive |
| CG3916 | 1 | inactive |
| jef (jet fuel) | 1 | inactive |
| CG17660 | 1 | inactive |
| CG13492 | 1 | inactive |
| svp (seven up) | 1 | inactive |
| svp (seven up) | 2 | inactive |
| svp (seven up) | 3 | inactive |
| Fmo-1 (Flavin-containing monooxygenase 1) | 1 | inactive |
| CG43672 | 1 | inactive |
| CG43672 | 2 | inactive |
| Trs20 (TRAPP subunit 20) | 1 | inactive |
| Tsp42Ed (Tetraspanin 42Ed) | 1 | inactive |
| CG8191 + CG12379 | 1 | inactive |
| Gr10b (Gustatory receptor 10b) | 1 | inactive |
| CG8034 | 1 | inactive |
| hig (hikaru genki) | 1 | inactive |
| hig (hikaru genki) | 2 | inactive |
| hig (hikaru genki) | 3 | inactive |
| Vhl (von Hippel-Lindau) | 1 | inactive |
| CG42582 (retired record) | 1 | inactive |
| CG11664 | 1 | inactive |

Reprinted from the listing (13 entries):
| predicted target | reagent no. | activity call |
| --- | --- | --- |
| CG13492 | 1 | inactive |
| svp (seven up) | 1 | inactive |
| svp (seven up) | 2 | inactive |
| svp (seven up) | 3 | inactive |
| Fmo-1 (Flavin-containing monooxygenase 1) | 1 | inactive |
| CG43672 | 1 | inactive |
| CG43672 | 2 | inactive |
| Trs20 (TRAPP subunit 20) | 1 | inactive |
| Tsp42Ed (Tetraspanin 42Ed) | 1 | inactive |
| CG8191 + CG12379 | 1 | inactive |
| Gr10b (Gustatory receptor 10b) | 1 | inactive |
| CG8034 | 1 | inactive |
| hig (hikaru genki) | 1 | inactive |
